The record followed here is PMC7819943, “Rice protein-binding microarrays: a tool to detect cis-acting elements near promoter regions in rice”.

This is one part of the list.

This experiment deals with T1, OsSMF1 (Oryza sativa, UniProt Q6ZLB0 1-436).
T1 sequence: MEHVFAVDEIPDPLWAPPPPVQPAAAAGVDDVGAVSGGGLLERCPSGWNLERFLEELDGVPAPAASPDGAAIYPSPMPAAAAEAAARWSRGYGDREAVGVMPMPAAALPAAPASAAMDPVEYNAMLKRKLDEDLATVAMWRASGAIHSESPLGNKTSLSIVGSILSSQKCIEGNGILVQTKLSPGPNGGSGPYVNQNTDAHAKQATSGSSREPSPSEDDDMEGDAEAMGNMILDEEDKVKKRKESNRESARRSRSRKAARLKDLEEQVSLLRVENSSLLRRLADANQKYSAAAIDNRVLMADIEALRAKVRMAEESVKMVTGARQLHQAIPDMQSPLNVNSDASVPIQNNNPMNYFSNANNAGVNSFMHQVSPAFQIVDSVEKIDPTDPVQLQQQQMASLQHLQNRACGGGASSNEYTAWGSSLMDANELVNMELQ
The experiment can be described thus: protein-binding microarray (RPBM); PBS, 2% BSA, 51.3 ng/ul salmon testes DNA, 50 uM zinc acetate, 200 nM TF, 25 C, 1 h; high values mean tight binding. To be noted: protein: recombinant; tags: N-terminal polyhistidine and DsRed monomer fusion (pET32a); chain copies: 2; label: CyDye5-dUTP incorporated in the synthesized complementary strand; 3' TTTTT single-stranded linker to array surface; dsDNA, one strand shown. In outline: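 Polyhistidine-tagged DsRed fusions of transcription factors, joined at the N-terminus, were expressed in E. coli BL21-CodonPlus and isolated on Ni–NTA. They were incubated at 200 nM for 1 h at 25 °C on a custom Agilent array, double-stranded and BSA-blocked, in PBS with 2% BSA, salmon testes DNA and 50 µM zinc acetate. The binding signal is per-feature fluorescence intensity (arbitrary units) read on an Axon 4000B scanner after washing.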
As for “ATCCCAAATCACCCGTCACCGGCGGCCACGACCGCACCCGCGGAGTCACCTAGTGCAG”, the binding signal is 4060 fluorescence intensity (a.u.). Consider “CACCAGGCACCGACTGCCGTAGTGTCACCGGCCACAGTGCCGGAGTCACCTAGTGCAG”, for which the binding signal was 3220 fluorescence intensity (a.u.). As for “CGCAAACATTTTCGGAATATACGAATCCAGCGTTGCACTGCGGAGTCACCTAGTGCAG”, the figure is 3250 fluorescence intensity (a.u.); as for “CCTGCCAACCCCATCCCAGCCCTACACGTGTCCATCCTCACGGAGTCACCTAGTGCAG”, 11600 fluorescence intensity (a.u.); as for “CACCTGAATAAAGTTCAGTCCATCTCCTCACTTATTTAACCGGAGTCACCTAGTGCAG”, 22600 fluorescence intensity (a.u.). As for “GACCATCACCGTGTCGCGGTGTCGGTAATGGTAAGCAGTACGGAGTCACCTAGTGCAG”, the binding signal is 5120 fluorescence intensity (a.u.). On to “CACTAGCTTGTTATATTTACGTGGCACACTTTGATGAGTACGGAGTCACCTAGTGCAG”, for which the binding signal is 11500 fluorescence intensity (a.u.). As for “CGCGGTGATTCGGAATACTCGGCGGCGTCTGTATCCGTCTCGGAGTCACCTAGTGCAG”, the figure is 4800 fluorescence intensity (a.u.); as for “ATAAATACCGCGATAACCTCCTTAAATTCAAATAAATTTACGGAGTCACCTAGTGCAG”, 54800 fluorescence intensity (a.u.). On to “GGGCGGCGACGACGGTCACGGCGGACAAGGGCGGCGGCAACGGAGTCACCTAGTGCAG”, for which the binding signal was 3160 fluorescence intensity (a.u.).

As to “CGTTGTATGGCCGACGCGGCGAGTCACCAAGACGATAGACCGGAGTCACCTAGTGCAG”, the binding signal is 3450 fluorescence intensity (a.u.). As for “TGATCTTGGGCCCAGCTGAGCCCCTGATCACTGCCGGCCACGGAGTCACCTAGTGCAG”, the binding signal was 4720 fluorescence intensity (a.u.). As for “CGGGCCGGCACGGCTACTGTAGTGGCACGTGGGCTGGTAGCGGAGTCACCTAGTGCAG”, the binding signal was 5100 fluorescence intensity (a.u.). In the case of “ATATTTATTTATGCAATTTATCGCGCATGTTAACCATTCACGGAGTCACCTAGTGCAG”, the binding signal is 3410 fluorescence intensity (a.u.). As to “CGCTGACCAGTCAAACCACCTCCTCCACTTGTCACTTCCACGGAGTCACCTAGTGCAG”, the binding signal is 4120 fluorescence intensity (a.u.). With “TGCCGCCCGACTGATGCACGTCAGTCGGGTCTGACCAGTCCGGAGTCACCTAGTGCAG”, the binding signal is 3440 fluorescence intensity (a.u.). Take “GCCGTCCGCCGTGAGCCGGTGCTGTCCACGACGTCGTCTTCGGAGTCACCTAGTGCAG”: the binding signal is 3360 fluorescence intensity (a.u.). As to “AGGTTCTTGCGTTTGCTGATGATCAGTGTGCTACTACTGTCGGAGTCACCTAGTGCAG”, the binding signal was 3140 fluorescence intensity (a.u.). Turning to “GACGACGGCGGTGAAAGAGATCCATGTCATCGCCACCGTGCGGAGTCACCTAGTGCAG”, the binding signal is 8850 fluorescence intensity (a.u.). On to “AATGAAATTAAACACACCCAACAAAATAAAAGACCAAACCCGGAGTCACCTAGTGCAG”, for which the binding signal is 3140 fluorescence intensity (a.u.). Regarding “TCCTCCCGCCGCCCCTGGTTGCCGCTCCTCGGCCACGCGGCGGAGTCACCTAGTGCAG”, the binding signal was 4400 fluorescence intensity (a.u.).

“CGCGGTTCGGGCTGACGTCAGGCCGTGTACTGACTCAGGGCGGAGTCACCTAGTGCAG”: the binding signal was 8330 fluorescence intensity (a.u.). Take “CCCCTGAGACAGAGGACGATGAGTCACCACCTCACCGCCTCGGAGTCACCTAGTGCAG”: the binding signal was 16100 fluorescence intensity (a.u.). With “CGTGCACACGTGCAAATTAACTTTTGAATTCGAGTCTTTGCGGAGTCACCTAGTGCAG”, the binding signal is 4630 fluorescence intensity (a.u.). With “CCACCGGAAACAGGGAAGAAGAGGGGTCGAGAAAGGGGAGCGGAGTCACCTAGTGCAG”, the binding signal was 4020 fluorescence intensity (a.u.). Regarding “TTCCAATAATTCTATTCTCCTTACGTGACGCTATGCTGGTCGGAGTCACCTAGTGCAG”, the binding signal was 5480 fluorescence intensity (a.u.). For the sequence “GTTTGTACGTACTACGTAGTACATCGGATCGTACGTACTGCGGAGTCACCTAGTGCAG”, the binding signal was 3260 fluorescence intensity (a.u.). Turning to “CATTTCTCTGTAATGCTTTTCGATTAGGATGCCATTAATTCGGAGTCACCTAGTGCAG”, the binding signal is 3350 fluorescence intensity (a.u.). As for “CGGGCATATGGGGCGGTGATGGCGTCGGCACCGCTGTTGTCGGAGTCACCTAGTGCAG”, the binding signal was 3930 fluorescence intensity (a.u.). On to “GCGTCGTTCCCGCACTCGTCGCCGCTGCAGCGCGAGGGCCCGGAGTCACCTAGTGCAG”, for which the binding signal was 3790 fluorescence intensity (a.u.). Under “TCTCCCCGCCGCCTCGCCGCCTCGCAAGCGCCACCCCGCCCGGAGTCACCTAGTGCAG” stands 3290 fluorescence intensity (a.u.); under “TGCCACATGCATTGGTGGCACTAATTACTATCCATCATGTCGGAGTCACCTAGTGCAG”, 3310 fluorescence intensity (a.u.); under “TGATACTGTCGCAGCTGTGCTACACGCTCATGTACTTCATCGGAGTCACCTAGTGCAG”, 3370 fluorescence intensity (a.u.).

For “ACATCATGCCACATGCTTCCAAGAAGGATCCCATAGATGTCGGAGTCACCTAGTGCAG”, the binding signal is 4220 fluorescence intensity (a.u.).

Take “TTAATTTGGAGGAATTGTTTTCCGATTTTAGATATATATACGGAGTCACCTAGTGCAG”: the binding signal was 3680 fluorescence intensity (a.u.). For “CCCGTGACGTGGCCGCGACAACCGCCGACCCGCCTCTCCCCGGAGTCACCTAGTGCAG”, the binding signal was 13900 fluorescence intensity (a.u.).

“TCCCATCATTCGCTGACCGGCTGGAGACGGCGGTGAAGCGCGGAGTCACCTAGTGCAG”: the binding signal is 3830 fluorescence intensity (a.u.).

Consider “AGAAATGAGAATAATCATGCCACATGTCACCAAACGATTGCGGAGTCACCTAGTGCAG”, for which the binding signal is 3380 fluorescence intensity (a.u.).

Take “CAGCTCGGCGCCGACGATGTCGACCCCGTCGTGGCCATTCCGGAGTCACCTAGTGCAG”: the binding signal is 3740 fluorescence intensity (a.u.). In the case of “TCCGGGAGACACGGAGCCACGTTGCCTCGTGTCACCCCGTCGGAGTCACCTAGTGCAG”, the binding signal was 7210 fluorescence intensity (a.u.). Take “ATCGCCCCGCCCTCCTCGCCGCGCGGATTCGCTCGCCGCCCGGAGTCACCTAGTGCAG”: the binding signal is 3340 fluorescence intensity (a.u.). On to “GCTGGGAGCACCGGCCACATCAATGAATCATACTGTACTACGGAGTCACCTAGTGCAG”, for which the binding signal is 4220 fluorescence intensity (a.u.).
